This experiment is described as follows: qHTS Assay to Find Inhibitors of Chronic Active B-Cell Receptor Signaling. Particulars: ABC-DLBCL IkBa-CBG/CBR reporter, luminescence ratio (green luciferase fused to IkBa over red control in TMD8 lymphoma cells), 4 h. An outline of the steps:
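Doxycycline induced both beetle luciferases in TMD8 lymphoma cells; IKK-driven degradation limits the IkappaBalpha-fused green signal, while red luminescence normalises for cell number and nonspecific effects. Compounds tested up to 46 uM, 4 hrs.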
On the technique in general: Quantitative high-throughput screening tests each substance at several concentrations.

Setting [1] is: measured here: CBR red luminescence, cell number.
[2] abbreviates: measured here: IkBa-CBG green luminescence.

This is one part of the list. The main result of the screen is listed elsewhere. These columns were measured beside it and carry no call. The list favours compounds with an active or inconclusive main result. Words in brackets tell the shape of the fitted curve; partial curves, single points and poor fits give uncertain potencies.

Regarding `CN1C(=S)SC(C)(C)C1N(O)C(=O)Nc1ccc(Cl)cc1` (configuration not stated), under setting [1], the AC50 – broadly, the midpoint of the concentration-response curve, whichever way the signal moves – was 2.82 µM [rising, single point].

For the compound `Cc1ccc(-c2cc(C(=O)NC3CCCC3)no2)cc1`, the AC50 under setting [1] was 7.08 µM [falling, full curve].

Turning to `CC(C)(C)c1ccc(C(=O)N2CCN(Cc3ccccc3)CC2)cc1`, under setting [1], the AC50 was 8.91 µM [falling, partial curve].

On to `COc1ccc(-c2cc(=Nc3ccc(C(=O)O)cc3)c3cc(C)ccc3o2)cc1`, for which the AC50 under setting [1] is 0.891 µM [rising, full curve, poor fit].

Regarding `CC(=O)CCC1CC(c2ccc(Cl)cc2)=NO1` (configuration not stated), the AC50 under setting [1] is 2.91 µM [falling, full curve].

Turning to `Cc1cc(C(=O)NNC(=O)c2ccc(Cl)cc2Cl)c(C)o1`, under setting [1], the AC50 is 23.1 µM [falling, partial curve, poor fit].

For `C=CCC[C@H](Cc1ccc(F)cc1)C(=O)OC[C@@H](C)NC(=O)[C@@H](CC=C)CC(=O)N[C@H](CO)Cc1ccccc1`, the AC50 under setting [1] is 13 µM [falling, partial curve].

`COc1ccccc1-n1ccnc(SCC(=O)NC2CCCC2)c1=O`: under setting [1], the AC50 is 1.64 µM [falling, partial curve, poor fit].

With `COc1ccc(OC)c(NC(=O)COC(=O)C2CCN(C(=O)c3ccc(Cl)cc3)CC2)c1`, under setting [1], the AC50 was 15.8 µM [rising, single point].

For the compound `COc1ccc2c(c1)CC/C2=N\NC(=O)c1ccccc1`, the AC50 under setting [1] was 20.6 µM [falling, partial curve].

On to `CCOC(=O)[C@@H]1[C@H]2COc3ccc(Br)cc3[C@H]2N2C(=O)N(c3ccc(C(F)(F)F)cc3)C(=O)[C@]12C`, for which the AC50 under setting [1] was 23.1 µM [falling, partial curve].

Take `CCc1ccc(NC(=S)N(CCCN2CCN(C)CC2)Cc2cccs2)cc1`: the AC50 under setting [1] was 25.9 µM [falling, single point].

Consider `CN(/N=C/c1ccc(Cl)cc1)c1ncc(Cl)cc1C(F)(F)F`, for which, under setting [1], the AC50 was 12.6 µM [rising, single point].

Consider `O=C(Cn1cccc1)Nc1ccc(F)cc1F`, for which the AC50 under setting [1] was 3.16 µM [falling, single point].

`O=C(CSc1c2c(nc3ccccc13)CCCC2)NCc1ccco1`: the AC50 under setting [1] is 4.47 µM [falling, full curve].

For `CC(C)(C)c1cc(-c2nc(N)nc(N)n2)c(O)c(C(C)(C)C)c1`, the AC50 under setting [1] was 11.6 µM [rising, partial curve].

On to `CCn1c([N+](=O)[O-])nc2c1c(=O)[nH]c(=O)n2C`, for which the half-maximal activity concentration (AC50) is 10 µM [falling, partial curve] under setting [1] and 5.62 µM [falling, single point] under setting [2].

As for `COc1ccc(N2CCN(C(c3nnnn3C3CCCC3)C(C)C)CC2)cc1` (configuration not stated), the half-maximal activity concentration (AC50) under setting [1] was 12.6 µM [rising, partial curve].

For the compound `N#CC1=C(N)NC(SCc2ccccc2)=C(C#N)C12CCCC2`, the AC50 under setting [2] is 18.4 µM [falling, single point].

On to `CC1(C(=O)Nc2nnc(C(C)(C)C)s2)Cc2ccccc2C(=O)O1` (configuration not stated), for which the AC50 under setting [1] is 3.16 µM [falling, single point].

As for `COc1ccc(CCNc2ncnc3c2[nH]c2cc(OC)c(OC)cc23)cc1OC`, the AC50 under setting [1] was 17.8 µM [falling, single point].

With `CCCc1nc2ccccc2c(C(=O)OC(C)C(=O)NCc2ccc3c(c2)OCO3)c1CC` (configuration not stated), the AC50 under setting [1] is 29.1 µM [falling, single point].

For `Cc1ccc(NC(=O)/C=C2\NC(=O)CS2)cc1`, the AC50 under setting [1] is 11.2 µM [falling, partial curve, poor fit].

In the case of `O=C(CN(C(=O)CNC(=O)c1ccco1)c1ccc(F)c(Cl)c1)NC1CCCCC1`, the half-maximal activity concentration (AC50) under setting [1] is 1.78 µM [rising, partial curve, poor fit].

Turning to `CN(C)CCn1c2c(c(SCC(=O)NCc3ccccc3)nc1=O)CCCC2`, the AC50 under setting [1] is 25.9 µM [falling, single point].

As to `CCN(CC)S(=O)(=O)c1ccc(Oc2ccc(S(=O)(=O)N(CC)CC)cc2)cc1`, under setting [1], the AC50 is 3.66 µM [falling, single point].

`COCCNC(=O)/C(C#N)=c1\s/c(=C\c2ccccc2OC(F)F)c(=O)n1Cc1ccccc1`: under setting [1], the AC50 is 35.5 µM [falling, single point].

With `C=C(C)Cn1c(-c2ccc(OC)cc2)nc2ccccc21`, the concentration at half-maximal activity (AC50) under setting [1] is 28.2 µM [falling, single point].

Regarding `O=C(c1ccc(Cl)cc1)N1CCCCC(Sc2nnc(-c3ccc4c(c3)OCO4)o2)C1=O` (configuration not stated), the AC50 under setting [1] was 4.11 µM [falling, partial curve, poor fit].

For `Nc1nnnn1/N=C/C(Br)=C/c1ccccc1`, the AC50 reads like this: under setting [1], 35.5 µM [falling, single point]; under setting [2], 2.82 µM [falling, partial curve, poor fit].

Consider `COCCCn1c(-c2ccc(S(=O)(=O)N3CCOCC3)cc2)csc1=Nc1ccccc1`, for which, under setting [1], the AC50 is 23.1 µM [rising, single point].

`CCNC(=O)c1cc2c(=O)n3cccc(C)c3nc2n(Cc2ccc(C)cc2)c1=N`: the AC50 under setting [1] is 5.62 µM [falling, single point].

In the case of `NC(=O)CNCCC(c1ccccc1)c1ccccc1`, under setting [1], the AC50 is 5.8 µM [falling, single point].

Consider `CC1CC1C(=O)Nc1ccc(-c2ccccc2)cc1` (configuration not stated), for which the half-maximal activity concentration (AC50) under setting [1] was 29.1 µM [falling, single point].

With `O=C(Nc1nnc(SCc2cccc(F)c2)s1)c1ccco1`, under setting [1], the AC50 is 7.08 µM [rising, partial curve, poor fit].

In the case of `Cc1cnc(C(=O)Nc2ccc3c(c2)CCC3)cn1`, the AC50 under setting [1] was 2.51 µM [rising, full curve, poor fit].

In the case of `O=S(=O)(/N=S1/CC=CCN1S(=O)(=O)c1ccccc1)c1ccccc1` (configuration not stated), the AC50 under setting [1] is 5.8 µM [falling, partial curve, poor fit].

Consider `CC1=CC(=O)C=C(C)C1=NOc1ccccc1[N+](=O)[O-]`, for which, under setting [2], the AC50 was 20.6 µM [falling, single point].

As to `Cc1[nH]nc(SCC(=O)NC2CCCCC2)c1[N+](=O)[O-]`, the AC50 under setting [1] is 11.2 µM [falling, partial curve].

Turning to `COc1ccccc1NC(=O)C(=O)NCc1ccccc1Cl`, under setting [1], the AC50 is 0.0058 µM [falling, full curve].

As to `COc1ccc(NC(=O)COC(=O)c2c3c(nc4ccccc24)CCCC3)cc1`, the AC50 under setting [1] is 2 µM [falling, full curve, poor fit].

Consider `Cc1ccc2c(c1)c1c(n2CC(O)Cn2nc(C)c(Br)c2C)C(=O)CCC1` (configuration not stated), for which, under setting [1], the AC50 was 1.46 µM [rising, partial curve, poor fit].

Take `CS(=O)(=O)N1CCN(c2cnn(-c3ccccc3)c(=O)c2Cl)CC1`: the AC50 under setting [1] was 3.98 µM [falling, full curve].

Regarding `CCOC(=O)c1c(NC(=O)CSc2nnc(CNc3ccc(F)cc3)o2)sc(C)c1C`, under setting [1], the AC50 is 20 µM [falling, partial curve].

In the case of `COc1ccc2c(c1)c(/C=N/Nc1nc3ccccc3[nH]1)c(C)n2C`, the AC50 under setting [2] was 17.8 µM [falling, partial curve, poor fit].

On to `CC(=O)/C=C/c1ccc2ccccc2n1`, for which the AC50 under setting [1] was 2.82 µM [falling, full curve, poor fit].

Turning to `Cc1c(CC(Cl)(Cl)Cl)c2c(n1O)CC(C)(C)CC2=O`, under setting [1], the AC50 is 16.4 µM [falling, single point].

For the compound `O=C(Nc1ccc(Nc2ccccc2)cc1)C(Cl)Cl`, the AC50 under setting [1] is 2.91 µM [rising, full curve, poor fit].

With `CCOC(=O)Cn1nnc(-c2ccc(SC)cc2)n1`, the AC50 under setting [1] is 9.2 µM [rising, single point].

For the compound `CSc1ccccc1NC(=O)c1cc(-c2ccco2)on1`, the concentration at half-maximal activity (AC50) under setting [1] was 6.31 µM [falling, partial curve].

Turning to `CCOC(=O)c1c(C)[nH]c(N=Nc2ccc(C)cc2)c1C`, under setting [1], the AC50 is 23.1 µM [rising, partial curve, poor fit].

Consider `Cc1ccc(SC(c2ccccc2)C(Cn2cncn2)C(=O)c2ccccc2)cc1` (configuration not stated), for which the AC50 under setting [1] is 29.1 µM [falling, single point].

Take `Cc1ccc(CNC(=O)c2cccc(-n3cnnn3)c2)cc1`: the AC50 under setting [1] is 20.6 µM [rising, partial curve, poor fit].

Turning to `C#CCOC(=O)c1ccc(-n2cncn2)nc1`, the AC50 under setting [1] is 29.1 µM [falling, single point].

As to `Cc1nc2c3cc(F)ccc3n(CCN3CCCCC3)c2s1`, the AC50 under setting [2] is 15.8 µM [falling, single point].

Consider `Cn1c(=O)c2c(nc(N3CCOCC3)n2CCCNC2=NCCCCC2)n(C)c1=O`, for which, under setting [1], the AC50 is 0.82 µM [falling, full curve, poor fit].

Turning to `Cc1cccc(OCC(=O)NC(=S)Nc2ccccc2N2CCOCC2)c1C`, the AC50 under setting [1] is 20 µM [falling, single point].

For the compound `O=C(NCCC1=CCCCC1)c1ccc(-n2cncn2)cc1`, the AC50 under setting [1] is 32.6 µM [rising, single point].

For the compound `Cc1ccc(-n2nnnc2C(Cl)c2nnnn2-c2ccc(C)cc2)cc1`, the AC50 under setting [1] is 29.1 µM [falling, single point].

`COc1ccc(N2CCN(C(=O)COCc3cc(-c4ccc5c(c4)OCO5)on3)CC2)cc1`: under setting [1], the AC50 is 25.1 µM [falling, single point].

For the compound `O=C1C(Cl)=C(NCC2CCCO2)C(=O)N1C1CCCCC1` (configuration not stated), the AC50 under setting [1] is 10 µM [falling, partial curve, poor fit].

In the case of `O=C(NCC1([N+](=O)[O-])CN(C(=O)c2ccccc2)CN(C(=O)c2ccccc2)C1)c1ccccc1`, the half-maximal activity concentration (AC50) under setting [1] was 35.5 µM [rising, partial curve, poor fit].

On to `Cc1cccc(NC(=O)CNC(=O)c2cccs2)n1`, for which the AC50 under setting [1] was 14.6 µM [falling, partial curve].

With `COc1ccccc1C(=O)NNC(=O)c1cccc(O)c1`, under setting [1], the AC50 was 10 µM [falling, partial curve].

Turning to `O=C(NCCCN1CCCC1=O)c1cccc(Oc2ccccc2)c1`, under setting [1], the AC50 was 3.98 µM [rising, full curve, poor fit].
